“And” between values parts separate entries of the source, which are not always exact repeats. Equal values may be shown once. The list shows a part of the results. Further columns of the screen follow, without active or inactive calls. The list favours compounds with an active or inconclusive main result. Words in brackets tell the shape of the fitted curve; partial curves, single points and poor fits give uncertain potencies.
assay: IkB Signaling; details: ABC-DLBCL IkBa-CBG/CBR dual luciferase ratio (green luciferase fused to IkBa over red control in OCI-Ly3 lymphoma cells), 4 h; measured here: control luc red channel unless noted
Procedure, shortened: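 In this assay, an IκBα–CBG68 fusion accumulates when IKK-driven degradation is blocked; native CBR normalizes for cell number. OCI-Ly3 cells were treated 4 h with compound and doxycycline, then green and red light read after Chroma-Glo addition.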

**Q.** For `Cc1ccc(NC(=O)CSc2nc(-c3cccs3)cc(C(F)(F)F)n2)cc1C`, which AC50 is on record?
**A.** 5.01 µM [falling, single point]

**Q.** For `Cc1cccc(NC(=O)CSc2cn(CC(=O)N3CCOCC3)c3ccccc23)c1`, which AC50 is on record?
**A.** 12.6 µM [falling, partial curve]

**Q.** Which AC50 does the source give for `COc1ccc(S(=O)(=O)N(CCc2ccccc2)CC(=O)Nc2cc(C)ccc2C)cc1` here?
**A.** 3.16 µM [falling, partial curve]

**Q.** For `CCc1ccc(NC(=O)C2CCN(S(=O)(=O)c3c(C)noc3/C=C/c3cccs3)CC2)cc1`, which AC50 is on record?
**A.** 5.01 µM [falling, full curve]

**Q.** For `CCOC(=O)C1=C(c2ccccc2)Nc2ncnn2C1c1ccc(Cl)cc1` (stereo not given), which AC50 is on record?
**A.** 15.8 µM [falling, single point]

**Q.** For `COc1ccc(CNC(=O)c2ccc3c(c2)NC(=O)C(CS(=O)(=O)Cc2ccccc2Cl)N3)cc1` (stereo not given), which AC50 is on record?
**A.** 15.8 µM [falling, partial curve]

**Q.** With `O=C(c1ccc2c(c1)N(Cc1cccc(Cl)c1)C(=O)c1ccccc1S2(=O)=O)N1CCC(Cc2ccccc2)CC1` as the compound, how does the AC50 read?
**A.** 12.6 µM [falling, partial curve]

**Q.** Which AC50 does the source give for `Cc1nc2ccc(S(=O)(=O)N(CC(=O)Nc3ccc(Cl)cc3)Cc3ccccc3)cc2s1` here?
**A.** 12.6 µM [falling, partial curve]

**Q.** For `COc1cc(Cl)c(C)cc1Nc1c2c(nc3ccccc13)CCC2`, which AC50 is on record?
**A.** 31.6 µM [falling, single point]

**Q.** For `Cc1cc(-c2csc(NC(=O)c3cc4ccccc4o3)n2)c(C)n1C`, which AC50 is on record?
**A.** 12.6 µM [falling, partial curve]

**Q.** With `COc1cc(NC(=O)CCCN2C(=O)CCn3nc(-c4cn(C)c5ccccc45)cc32)cc(OC)c1` as the compound, how does the AC50 read?
**A.** 39.8 µM [falling, single point]

**Q.** For `CSc1nc(C)cc(Nc2cccc(C(=O)O)c2)n1`, which AC50 is on record?
**A.** 7.94 µM [falling, partial curve]

**Q.** Which AC50 does the source give for `O=c1c(O)c(-c2ccc(O)cc2)oc2cc(O)cc(O)c12` here?
**A.** 7.94 µM [falling, partial curve] and 12.6 µM [falling, partial curve]

**Q.** For `COc1cccc(C(=O)Nc2ccc3nc(SCC(=O)N4CCc5ccccc54)sc3c2)c1`, which AC50 is on record?
**A.** 0.501 µM [falling, full curve]

**Q.** Which AC50 does the source give for `Cc1sc2c(c1C)c(=O)n(-c1ccc(Cl)cc1)c(=O)n2CC(=O)c1ccccc1` here?
**A.** 0.794 µM [falling, full curve]

**Q.** With `Cc1c(NC(=O)c2ccc(-c3ccc(F)cc3)o2)cccc1-c1nc2ncccc2o1` as the compound, how does the AC50 read?
**A.** 12.6 µM [falling, partial curve]

**Q.** Which AC50 does the source give for `O=c1[nH]c2ccc(S(=O)(=O)Nc3cc(Cl)ccc3O)cc2o1` here?
**A.** 15.8 µM [falling, single point]

**Q.** With `N#CC1=C(N)NC(SCc2ccccc2)=C(C#N)C12CCCCC2` as the compound, how does the AC50 read?
**A.** 3.98 µM [falling, partial curve]

**Q.** With `CC(CCc1ccco1)NC(=O)c1cc2c(-c3ccccc3F)nn(C)c2s1` (stereo not given) as the compound, how does the AC50 read?
**A.** 2.51 µM [falling, full curve, poor fit]

**Q.** For `CCOc1ccccc1N1CCN(S(=O)(=O)c2ccc3c4c(cccc24)C(=O)N3)CC1`, which AC50 is on record?
**A.** 15.8 µM [falling, partial curve]

**Q.** With `CC(=O)Nc1cccc(-c2nnc(-c3ccccc3)o2)c1` as the compound, how does the AC50 read?
**A.** 10 µM [falling, partial curve]

**Q.** With `Cc1cc(F)ccc1NC(=O)CN1C(=O)CCc2cc(S(=O)(=O)N3CCOCC3)ccc21` as the compound, how does the AC50 read?
**A.** 25.1 µM [falling, single point]

**Q.** With `Cc1ccc(-n2ncc(C(=O)N(C)Cc3ccccc3)c2-n2cccc2)cc1` as the compound, how does the AC50 read?
**A.** 20 µM [falling, partial curve]

**Q.** Which AC50 does the source give for `CC(CNC(=O)c1cc2ccccn2n1)c1ccccc1` (stereo not given) here?
**A.** 7.94 µM [falling, partial curve]

**Q.** With `CC(C)n1c(NCc2cc(Cl)ccc2O)nc2ccccc21` as the compound, how does the AC50 read?
**A.** 20 µM [falling, partial curve]

**Q.** Which AC50 does the source give for `Cc1cc(Br)ccc1NC(=O)C(NS(=O)(=O)c1cccs1)c1ccccc1` (stereo not given) here?
**A.** 12.6 µM [falling, partial curve]

**Q.** For `COc1ccc2c(CNCCc3ccccc3OC)c(C(=O)O)n(Cc3ccc(F)cc3Cl)c2c1`, which AC50 is on record?
**A.** 25.1 µM [falling, single point]

**Q.** For `COc1ccc(C2=NS(=O)(=O)N(C)C(C(=O)NC(C)c3ccccc3)=C2)cc1OC` (stereo not given), which AC50 is on record?
**A.** 0.00251 µM [falling, full curve]

**Q.** Which AC50 does the source give for `O=C(CSc1nc(-c2ccccc2)no1)N1CCN(c2ccc(F)cc2)CC1` here?
**A.** 3.16 µM [falling, full curve]

**Q.** For `CC1=C(C(=O)OC2CCCC2)C(c2ccc(Cl)cc2)CC(=O)N1` (stereo not given), which AC50 is on record?
**A.** 31.6 µM [falling, partial curve]

**Q.** With `Cc1cc(C)cc(NC(=O)CN(c2cccc(C)c2C)S(=O)(=O)c2ccccc2)c1` as the compound, how does the AC50 read?
**A.** 10 µM [falling, partial curve]

**Q.** For `Cn1ccnc1SCC(=O)c1cc2ccccc2o1`, which AC50 is on record?
**A.** 20 µM [falling, partial curve, poor fit]

**Q.** For `Cc1cc(C)cc(NC(=O)c2cc3c(=O)n(Cc4ccco4)ccc3nc2C)c1`, which AC50 is on record?
**A.** 15.8 µM [falling, partial curve]

**Q.** For `O=C1N(Cc2ccc3c(c2)OCO3)c2ccccc2C1(O)c1c[nH]c2ccccc12` (stereo not given), which AC50 is on record?
**A.** 10 µM [falling, partial curve]

**Q.** Which AC50 does the source give for `O=C(COc1cccc(OC(F)F)c1)Nc1ccc(SC(F)F)cc1` here?
**A.** 31.6 µM [falling, single point]

**Q.** For `Cc1cc2c(cc1S(=O)(=O)CCC(=O)N(C)Cc1ccccc1)OCC(=O)N2`, which AC50 is on record?
**A.** 25.1 µM [falling, single point]

**Q.** With `CC1CCc2nc(NC(=O)Cc3ccc(Cl)cc3)sc2C1` (stereo not given) as the compound, how does the AC50 read?
**A.** 39.8 µM [falling, single point]

**Q.** With `CCOc1cccc(C2c3[nH]c4ccccc4c3CCN2C(=O)Cc2cccc(OCC)c2OCC)c1` (stereo not given) as the compound, how does the AC50 read?
**A.** 20 µM [falling, single point]

**Q.** With `COc1ccc(Cl)cc1C(=O)Nc1ccccc1N1CCN(C)CC1` as the compound, how does the AC50 read?
**A.** 20 µM [falling, single point]

**Q.** Which AC50 does the source give for `Cc1nn(C)c2c1c(C(F)(F)F)cc(=O)n2C(C)C(=O)NCc1ccccc1` (stereo not given) here?
**A.** 12.6 µM [falling, partial curve]
